{"source": "patent US20240315993A1", "about": "“ANTIPARASITIC COMPOUNDS” (Intervet Inc., priority 2021, published 2024)", "key": {"[1]": {"system": "Rhipicephalus sanguineus or Haemaphysalis elliptica ticks", "assay": "Dog - efficacy against ticks", "assay_type": "in vivo", "details": "10 mg/kg, after topical and oral administration", "procedure": "(§1) Beagle dogs were infested (whole body) with 80 Ctenocephalides felis fleas and 50 Rhipicephalus sanguineus or Haemaphysalis elliptica ticks (sex ratio 1:1) two days before the treatment day (Day 0), and repeatedly thereafter. Dogs of treatment groups were treated with 10 mg/kg bodyweight of a test compound orally (compound weighed in gelatin capsule), topically (spot-on, DMA 92%/DEET 8%) or subcutaneously (PEG 200 90%/water for injection 10%). Dogs of the negative control group received only an empty gelatin capsule orally and the spot-on formulation excipients topically.\n(§2) Compounds with efficacy ≥80 percent were found active."}, "[2]": {"system": "Ctenocephalides felis fleas", "assay": "Dog - efficacy against fleas", "assay_type": "in vivo", "details": "10 mg/kg, after topical and oral administration", "procedure": "as §1, §2"}}, "note": "Some entries share one result that the patent states for a list of compounds.", "data": [{"smiles": "O=C(Nc1ccc(F)cc1F)c1cc(NC(=O)[C@H]2[C@H](c3ccc(F)c(Cl)c3)C2(Cl)Cl)ccc1Cl", "note": "[Compound 197]", "values": [{"measurement": "duration of prophylactic efficacy against ticks", "setting": "[1]", "value": "at least 10 weeks"}, {"measurement": "duration of prophylactic efficacy against fleas", "setting": "[2]", "value": "at least 10 weeks"}]}]}
